Measured data: PubChem BioAssay AID1259331 (Drosophila RNAi Screening Center, 2017)

- Assay: 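Fly transmembrane-protein genes that affect zinc toxicity in cultured cells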 (primary screen)
- Cell system: Drosophila S2R+ cells
- Reagent: long dsRNA against Drosophila genes
- Timing: 5 days (4 days knock-down, then 1 day zinc)
- Conditions: zinc chloride at 15 mM final level for 1 day
- Read-out: 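Total cellular ATP measured by luciferase luminescence as a viability proxy, turned into Z scores from three plate copies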
- Direction: mean Z score: higher = more ATP than other wells, better survival under zinc; ATP luminescence: higher = more ATP, more viable cells
- Hit rule: 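a reagent is called a hit when its Z score is above 1.5 or below -1.5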
- Meaning of the calls: active = hit, ATP up or down; inactive = not a hit
Here is an unselected part of about 3,100 reagents. 126 of all reagents (4.1%) were called active. 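Calls are per reagent; zinc was so toxic that few knock-downs lowered ATP further, so most hits raise ATP.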 Raw values are not corrected between plates. Unmarked entries are inactive. The record does not give: the amount of reagent.

predicted target | amplicon | mean Z score | ATP luminescence, replicate 1 | ATP luminescence, replicate 2
Lerp (GeneID 43223) | DRSC14751 | 0.706 | 80647 | 74798
Lerp (GeneID 43223) | DRSC16030 | 0.125 | 67303 | 68957
Lerp (GeneID 43223) | DRSC16031 | 0.859 | 79275 | 81348
Sfxn2 (GeneID 40080) | DRSC10718 | -0.387 | 71067 | 55162
Sfxn2 (GeneID 40080) | DRSC39646 | 0.045 | 60392 | 56791
VGAT (GeneID 36574) | DRSC07160 | 0.169 | 74592 | 79017
TkR99D (GeneID 43551) | DRSC16881 | -0.00594 | 68709 | 63133
TkR99D (GeneID 43551) | DRSC39870 | -0.781 | 46159 | 48514
slv (GeneID 35773) | DRSC07685 | -0.382 | 63787 | 66493
VhaM9.7-c (GeneID 38503) | DRSC08204 | -0.156 | 33299 | 28184
VhaM9.7-c (GeneID 38503) | DRSC30083 | -0.0753 | 46366 | 46914
ppk16 (GeneID 3885612) | DRSC02736 | 0.0718 | 54184 | 42679
CG10465 (GeneID 35488) | DRSC04848 | -0.277 | 45851 | 37463
CG10465 (GeneID 35488) | DRSC39896 | -0.198 | 51715 | 64490
Osi13 (GeneID 40769) | DRSC12281 | -0.00127 | 72643 | 64397
mrva (GeneID 38808) | DRSC21842 | -0.0459 | 49246 | 47600
mrva (GeneID 38808) | DRSC25508 | 0.679 | 63410 | 65880
ATP6AP2 (GeneID 41104) | DRSC16420 | 0.121 | 36559 | 62977
ATP6AP2 (GeneID 41104) | DRSC39882 | 0.556 | 57751 | 71231
Ctr1C (GeneID 43668) | DRSC15089 | 0.0254 | 63770 | 69230
Ctr1C (GeneID 43668) | DRSC39456 | -0.417 | 40553 | 46708
PIG-B (GeneID 38446) | DRSC22598 | -0.663 | 39010 | 42679
PIG-B (GeneID 38446) | DRSC39659 | -0.0841 | 58750 | 57151
CG32983 (GeneID 50434) | DRSC22367 | -0.289 | 48200 | 56345
Sfxn1-3 (GeneID 40552) | DRSC12183 | -0.542 | 65558 | 52950
rtet (GeneID 42500) | DRSC14160 | 0.834 | 52298 | 58025
rtet (GeneID 42500) | DRSC39843 | 0.604 | 62673 | 66943
CG6282 (GeneID 38985) | DRSC29524 | 0.00398 | 63306 | 59569

Already shown: entries from further up.
predicted target | amplicon | mean Z score | ATP luminescence, replicate 1 | ATP luminescence, replicate 2
PIG-B (GeneID 38446) | DRSC39659 | -0.0841 | 58750 | 57151
CG32983 (GeneID 50434) | DRSC22367 | -0.289 | 48200 | 56345
